PubChem BioAssay AID1259425, University of Nebraska Medical Center – 2018
Test: 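Find knockdowns that reproduce the gene expression pattern seen when KSR1 is lost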 (primary screen). Cells: HCT116 human colon cancer cells. Reagent: siRNA pool against human genes, 50 nM siRNA. Measurement: 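After 50 nM siRNA pool, branched-DNA assay measures six marker transcripts per well, minus blank, normalised to the geometric mean of two housekeeping transcripts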. Direction: BNIP3L mRNA: higher = more BNIP3L transcript after knockdown; NDRG1 mRNA: higher = more NDRG1 transcript after knockdown.
This is one part, drawn at random, of about 14,000 reagents. Not all columns of the deposit are shown. No sequences are given here. The record does not give: the time to read-out.

The first 2 entries, ahead of the listing:
ARMC9
- BNIP3L mRNA, set 1: 0.148
- NDRG1 mRNA, set 1: 0.67

LMX1B
- BNIP3L mRNA, set 1: 0.116
- NDRG1 mRNA, set 1: 0.216

The listing, from the first entry:
ARMC9
- BNIP3L mRNA, set 1: 0.148
- NDRG1 mRNA, set 1: 0.67

LMX1B
- BNIP3L mRNA, set 1: 0.116
- NDRG1 mRNA, set 1: 0.216

B3GAT1
- BNIP3L mRNA, set 1: 0.161
- NDRG1 mRNA, set 1: 0.247

RNF181
- BNIP3L mRNA, set 1: 0.183
- NDRG1 mRNA, set 1: 0.65

LRP8
- BNIP3L mRNA, set 1: 0.0531
- NDRG1 mRNA, set 1: 1.04

PDK2
- BNIP3L mRNA, set 1: 0.0842
- NDRG1 mRNA, set 1: 0.228

RBMX2
- BNIP3L mRNA, set 1: 0.0753
- NDRG1 mRNA, set 1: 0.189

TMEM128
- BNIP3L mRNA, set 1: 0.0808
- NDRG1 mRNA, set 1: 0.148

INTS13
- BNIP3L mRNA, set 1: 0.0311
- NDRG1 mRNA, set 1: 0.0334

ERP29
- BNIP3L mRNA, set 1: 0.123
- NDRG1 mRNA, set 1: 0.649

ARIH1
- BNIP3L mRNA, set 1: 0.0393
- NDRG1 mRNA, set 1: 0.134

ITPRIP
- BNIP3L mRNA, set 1: 0.0974
- NDRG1 mRNA, set 1: 0.163

PIM2
- BNIP3L mRNA, set 1: 0.104
- NDRG1 mRNA, set 1: 0.148

MFAP4
- BNIP3L mRNA, set 1: 0.0958
- NDRG1 mRNA, set 1: 0.269

KRABD1
- BNIP3L mRNA, set 1: 0.0979
- NDRG1 mRNA, set 1: 0.22

CTR9
- BNIP3L mRNA, set 1: 0.148
- NDRG1 mRNA, set 1: 0.279

LMTK3
- BNIP3L mRNA, set 1: 0.279
- NDRG1 mRNA, set 1: 0.179

N4BP2L2
- BNIP3L mRNA, set 1: 0.857
- NDRG1 mRNA, set 1: 2.68

ZNF385A
- BNIP3L mRNA, set 1: 0.165
- NDRG1 mRNA, set 1: 0.129
